In PubChem BioAssay AID504810 (National Center for Advancing Translational Sciences (NCATS), 2011):
Out of some 330,000 compounds screened, about 670 (0.2%) were called active. The shares of active, inactive and inconclusive entries below differ from those in the screen.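 How the source made its calls: active means activity change below a set negative limit, meaning inhibition stronger than a set level (cut at about -70% in these data); inconclusive means activity change between two set negative limits; inactive means the rest.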
On the % scale 0 is the no-effect control and ±100 the full control effect.

Amino acid sequences for entries named in this document (tags omitted).
UniProt P16473, whole entry, looked up: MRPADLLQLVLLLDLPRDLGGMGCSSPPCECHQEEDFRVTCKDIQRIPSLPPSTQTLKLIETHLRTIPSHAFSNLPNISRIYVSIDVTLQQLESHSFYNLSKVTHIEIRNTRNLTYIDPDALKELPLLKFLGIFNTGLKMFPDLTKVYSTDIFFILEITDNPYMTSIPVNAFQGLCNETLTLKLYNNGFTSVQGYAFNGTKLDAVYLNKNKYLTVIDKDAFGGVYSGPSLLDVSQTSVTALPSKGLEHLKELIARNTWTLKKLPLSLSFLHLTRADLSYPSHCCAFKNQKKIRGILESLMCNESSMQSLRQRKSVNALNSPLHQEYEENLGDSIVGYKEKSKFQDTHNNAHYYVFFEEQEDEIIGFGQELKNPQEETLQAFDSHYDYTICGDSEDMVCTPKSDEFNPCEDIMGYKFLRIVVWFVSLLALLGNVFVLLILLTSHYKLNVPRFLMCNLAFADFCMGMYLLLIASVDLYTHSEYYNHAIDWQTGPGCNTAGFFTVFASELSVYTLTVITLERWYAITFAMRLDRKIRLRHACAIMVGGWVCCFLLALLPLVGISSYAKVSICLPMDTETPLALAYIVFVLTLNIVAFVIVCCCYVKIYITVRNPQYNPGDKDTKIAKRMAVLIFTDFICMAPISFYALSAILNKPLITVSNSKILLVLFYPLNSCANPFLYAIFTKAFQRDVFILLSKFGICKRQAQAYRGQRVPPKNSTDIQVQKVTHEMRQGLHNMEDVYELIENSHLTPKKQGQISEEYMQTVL

These compounds were tested against Thyrotropin receptor (Homo sapiens) (UniProt P16473) (assay: Antagonists of the Thyroid Stimulating Hormone Receptor: HTS campaign). Details: TSHR-expressing cells, TSH-stimulated cAMP HTRF, 2 h; at 11.5 µM; stronger effect = lower value.
In short: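 Inhibition of cAMP made by TSHR-expressing cells under TSH stimulation (4nM final, EC80; 2 h, 37 deg C) is quantified with a one-step lysis HTRF kit, anti-cAMP cryptate versus cAMP-d2.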
In the case of `Cc1nn(S(=O)(=O)c2ccc(F)cc2)c(C)c1S(=O)(=O)N1CCOCC1`, the activity change, negative = inhibition was inconclusive: -50.5%.
For `O=C1C2CC=CCC2C(=O)N1c1ccc(N2CCN(c3ccccn3)CC2)c([N+](=O)[O-])c1` (stereo unspecified), the activity change, negative = inhibition was inactive: -7.19%.
With `Cc1ccc(F)cc1NC(=O)C1C2CCC(O2)C1C(=O)O` (stereo unspecified) the activity change, negative = inhibition was inconclusive: -58.8%.
For `Cc1ccc(C(=O)Nc2ncc([N+](=O)[O-])s2)cc1`, the activity change, negative = inhibition was inconclusive: -54.3%.
In the case of `CCOc1ccccc1N(C(=O)c1snc(C(N)=O)c1N)C(C(=O)NC1CCCC1)c1cccs1` (stereo unspecified), the activity change, negative = inhibition was inconclusive: -64.2%.
In the case of `CCOc1ccc(Cl)cc1S(=O)(=O)NCc1ccccn1`, the activity change, negative = inhibition was inactive: -2.47%.
In the case of `CC[n+]1ccc(/C=C/c2ccc(N(C)C)cc2)c2ccccc21`, the activity change, negative = inhibition was active: -70.8%.
`COc1ccc(NC2CCCN(C(=O)CCc3cccc(F)c3)C2)cc1` (stereo unspecified) was tested, and the activity change, negative = inhibition was inconclusive: -54.7%.
With `N#C/C(=C\c1ccc(O)c([N+](=O)[O-])c1)c1nc2ccccc2s1` the activity change, negative = inhibition was inconclusive: -54.8%.
`N/C(=N\OC(=O)COc1ccc(Br)cc1Cl)c1cccnc1` was tested, and the activity change, negative = inhibition was inconclusive: -62.5%.
`COc1cc2cc(CCOC(=O)c3ccco3)oc(=O)c2cc1OC` was tested, and the activity change, negative = inhibition was inactive: 15.2%.
With `Cc1ccc(CNC(=O)CSc2nnc3c(n2)[nH]c2ccccc23)cc1` the activity change, negative = inhibition was active: -82%.
With `Cc1ccccc1NC(=O)Cc1nc(COC(=O)c2cccc([N+](=O)[O-])c2)cs1` the activity change, negative = inhibition was inconclusive: -50.7%.
For `COc1ccccc1NS(=O)(=O)c1cc(NC(=O)c2cnccn2)ccc1N1CCOCC1`, the activity change, negative = inhibition was inactive: -2.28%.
`CCN1/C(=C/c2ccc3ccccc3[n+]2CC)C=Cc2ccccc21` was tested, and the activity change, negative = inhibition was inconclusive: -63.3%.
`CC(C)Cn1c(C23CC4CC(CC(C4)C2)C3)n[nH]c1=S` was tested, and the activity change, negative = inhibition was inconclusive: -60%.
For `CS(=O)(=O)c1ccc(C(=O)OCC(=O)NCc2cccs2)cc1[N+](=O)[O-]`, the activity change, negative = inhibition was inconclusive: -60.2%.
`COc1ccc(CCNC(=O)c2nnn(CC(=O)Nc3ccc(C)cc3C)c2N)cc1OC` was tested, and the activity change, negative = inhibition was active: -81.7%.
For `Cc1ccc(CNC(=O)c2nn(C)c(C)c2[N+](=O)[O-])cc1`, the activity change, negative = inhibition was inactive: -0.28%.
With `N#C/C(=C\c1ccc(Sc2nc3ccccc3[nH]2)o1)c1ccccc1` the activity change, negative = inhibition was inconclusive: -62.1%.
In the case of `Cn1c(=NC(=O)CCS(=O)(=O)c2ccccc2)sc2cc(F)ccc21`, the activity change, negative = inhibition was inactive: -2.98%.
In the case of `Cc1nnsc1C(=O)N/N=C/c1ccccc1`, the activity change, negative = inhibition was inactive: 1.15%.
`CCC1CN(C(=O)NCc2ccccc2)c2ccccc2O1` (stereo unspecified) was tested, and the activity change, negative = inhibition was active: -71.5%.
With `O=C(N=C1SC2CS(=O)(=O)CC2N1c1ccc(F)cc1)C1CC1` (stereo unspecified) the activity change, negative = inhibition was active: -109%.
With `COC(=O)c1ccc2nc(Nc3nc4ccc(F)cc4s3)sc2c1` the activity change, negative = inhibition was inconclusive: -64.1%.
In the case of `O=C(/C=C\c1ccco1)Nc1nc(-c2ccc3ccccc3c2)cs1`, the activity change, negative = inhibition was inconclusive: -64.1%.
`CCOc1ccc(/C=C2/SC(=O)NC2=S)cc1` was tested, and the activity change, negative = inhibition was inconclusive: -63.3%.
For `Clc1ccc(CSc2snnc2-c2ccccc2)c(Cl)c1`, the activity change, negative = inhibition was inconclusive: -51.5%.
With `Cc1ccccc1C(=O)NC(=S)NC1CCSC1=O` (stereo unspecified) the activity change, negative = inhibition was inactive: -1.3%.
`O=c1[nH]c2ccccc2n1CCCSCCCn1c(=O)[nH]c2ccccc21` was tested, and the activity change, negative = inhibition was inconclusive: -64.6%.
`O=C(NCCS(=O)(=O)N1CCN(c2ccccc2)CC1)C1CC(=O)N(c2ccccc2)C1` (stereo unspecified) was tested, and the activity change, negative = inhibition was active: -135%.
With `COc1cc(/C=N\NC(=O)CNC(=O)C2COc3ccccc3O2)ccc1O` (stereo unspecified) the activity change, negative = inhibition was inactive: -3.21%.
For `Cc1ccccc1OCC(=O)N/N=C/c1ccc(N2CCOCC2)o1`, the activity change, negative = inhibition was inactive: -15.5%.
In the case of `Cn1c(=O)c([N+](=O)[O-])c(Cl)c2ccccc21`, the activity change, negative = inhibition was active: -82.6%.
`CSc1ccccc1C(=O)N1CCN(S(=O)(=O)c2sc(C(=O)O)c(C)c2C(=O)O)CC1` was tested, and the activity change, negative = inhibition was inactive: -10.9%.
`CC1CCCCC1NC(=O)c1cccc(NC2=NC3CS(=O)(=O)CC3S2)c1` (stereo unspecified) was tested, and the activity change, negative = inhibition was inactive: 3.02%.
With `CC(Oc1ccc(Cl)cc1Cl)C(=O)Nc1cccnc1` (stereo unspecified) the activity change, negative = inhibition was inconclusive: -65.2%.
In the case of `O=C1CCC(C(=O)OCc2cc(Cl)ccc2OC(F)F)N1` (stereo unspecified), the activity change, negative = inhibition was inactive: 9.3%.
With `CCOC(=O)CSc1nnc(-c2c[nH]c3ccccc23)o1` the activity change, negative = inhibition was inconclusive: -51.9%.
With `CCN(CC(=O)NC(=O)Nc1ccccc1F)Cc1ccccc1` the activity change, negative = inhibition was inactive: -6.22%.
For `O=C(Nc1ccc(F)cc1)c1nc(S(=O)(=O)Cc2ccccc2)ncc1Cl`, the activity change, negative = inhibition was inconclusive: -69.1%.
In the case of `CCCC(=O)Nc1sc(C)c(-c2ccc(C(C)CC)cc2)c1C#N` (stereo unspecified), the activity change, negative = inhibition was inconclusive: -59.2%.
In the case of `CC1CC(=O)N(c2ccc(NCCc3ccccc3)c([N+](=O)[O-])c2)C1=O` (stereo unspecified), the activity change, negative = inhibition was inconclusive: -63.3%.
`S=c1[nH]nc(-c2ccc(Cl)cc2Cl)n1-c1ccccc1` was tested, and the activity change, negative = inhibition was inactive: 5.02%.
In the case of `c1ccc(-c2cc3c(NCC4COc5ccccc5O4)ncnc3s2)cc1` (stereo unspecified), the activity change, negative = inhibition was inconclusive: -54.6%.
In the case of `Cn1c(N)c(Sc2ccccc2[N+](=O)[O-])c(=O)n(C)c1=O`, the activity change, negative = inhibition was active: -112%.
For `Cc1c(N(C)C(=O)C23CC4CC(CC(C4)C2)C3)c(=O)n(-c2ccccc2)n1C`, the activity change, negative = inhibition was inconclusive: -66.1%.
`O=C(OCCN1C(=O)c2cccc3c(N4CCOCC4)ccc(c23)C1=O)c1cccc(Cl)c1` was tested, and the activity change, negative = inhibition was inconclusive: -68.4%.
In the case of `Cc1ccc(CCNC(=O)C2CC(c3cc(C(F)(F)F)cc(C(F)(F)F)c3)=NO2)cc1` (stereo unspecified), the activity change, negative = inhibition was inconclusive: -67.3%.
In the case of `O=C(Nc1ncc([N+](=O)[O-])s1)c1cccs1`, the activity change, negative = inhibition was inconclusive: -54.4%.
`COc1ccc(NC(=O)c2ccc([N+](=O)[O-])o2)cc1` was tested, and the activity change, negative = inhibition was inconclusive: -55.9%.
With `COC(=O)CSc1nnc(NC(=O)C2CC(=O)N(c3ccc(F)cc3)C2)s1` (stereo unspecified) the activity change, negative = inhibition was inconclusive: -56.9%.
`CCN(C(=O)CN1C(=O)COc2ccc(S(=O)(=O)N3CCOCC3)cc21)c1ccc(OC)cc1` was tested, and the activity change, negative = inhibition was active: -140%.
With `O=C(Nc1ccc(-c2nc3ccccc3o2)cc1)c1ccc(N2C(=O)C3C4C=CC(C4)C3C2=O)cc1` (stereo unspecified) the activity change, negative = inhibition was inconclusive: -64.7%.
For `C/C(CC(C)(C)C1CCCCC1)=N\NC(N)=S`, the activity change, negative = inhibition was inconclusive: -51.2%.
`O=C(CN1CCN(C(=O)c2ccccc2)CC1)Nc1ccc(Cl)cc1F` was tested, and the activity change, negative = inhibition was active: -79.4%.
With `COc1ccc(-c2csc(NC(=O)C3CCN(C(=O)c4ccc(F)cc4)CC3)n2)cc1OC` the activity change, negative = inhibition was inactive: -21.5%.
`C/C(=N\Nc1ccc(Cl)c(C(=O)O)c1)c1cccc([N+](=O)[O-])c1` was tested, and the activity change, negative = inhibition was inactive: 17.6%.
With `COc1cccc(-c2c(C(=O)N/N=C/c3ccco3)nnn2-c2nonc2N)c1` the activity change, negative = inhibition was inactive: -4.88%.
For `CCCCn1c(=S)[nH]c2ccc(N3CCOCC3)cc2c1=O`, the activity change, negative = inhibition was inactive: -11.8%.
For `O=C(NCc1nc(-c2ccc(C(F)(F)F)cc2)no1)Nc1ccc(OC(F)(F)F)cc1`, the activity change, negative = inhibition was inconclusive: -58.1%.
In the case of `Cc1cccc(OCc2nnc(SCC(=O)N3c4ccccc4CCc4ccccc43)o2)c1`, the activity change, negative = inhibition was inconclusive: -66.1%.
For `NS(=O)(=O)c1ccc(Sc2nc3ccccc3s2)c([N+](=O)[O-])c1`, the activity change, negative = inhibition was inactive: -7.63%.
`O=c1c2cc(F)ccc2sn1-c1ccc(F)cc1` was tested, and the activity change, negative = inhibition was inconclusive: -52.4%.
`O=C(NCCc1ccccc1)c1cccnc1N1CCCCCC1` was tested, and the activity change, negative = inhibition was active: -80.4%.
In the case of `CCOc1ccccc1N(C(=O)c1snc(C(N)=O)c1N)C(C(=O)NC1CCCC1)c1ccco1` (stereo unspecified), the activity change, negative = inhibition was inconclusive: -51.6%.
`CC(=O)c1cccc(NC(=O)CCCSc2ccccc2)c1` was tested, and the activity change, negative = inhibition was active: -81.4%.
With `O=c1cc(CSc2nnc(-c3cccs3)n2Cc2ccccc2)nc2sc3ccccc3n12` the activity change, negative = inhibition was inconclusive: -55.7%.
`CC1SCC(=NOCc2ccccc2)CS1` (stereo unspecified) was tested, and the activity change, negative = inhibition was active: -70.4%.
In the case of `O=C(Nc1cccc([N+](=O)[O-])c1)c1cc2ccccc2cc1O`, the activity change, negative = inhibition was inconclusive: -58.8%.
For `Cc1noc(C)c1COC(=O)c1cc2c3ccccc3n(C)c2s1`, the activity change, negative = inhibition was inconclusive: -57.5%.
